{"source": "patent US8153142B2", "about": "“Skin treatment composition” (Shiseido Co., Ltd., priority 2001, dated 2012)", "system": "human skin", "assay": "Evaluation No.(6): Compatibility with Skin", "type": "in vivo", "details": "basic composition B"}
{"substance": "Polyoxyethylene (10) polyoxypropylene (10) dimethyl ether [Compound 2]", "values": [{"measurement": "Compatibility (6)", "setting": "Table 12, tested compound 5.0 wt %", "result": "⊚ (Not less than 8 special panelists recognized that the compatibility with skin during use was good.)"}, {"measurement": "Compatibility (6)", "setting": "Table 13, Y/X study", "result": "⊚ (Not less than 8 special panelists recognized that the compatibility with skin during use was good.)"}, {"measurement": "Compatibility (6)", "setting": "Table 14, tested compound 5.0 wt %", "result": "⊚ (Not less than 8 special panelists recognized that the compatibility with skin during use was good.)"}]}
